The other results are listed elsewhere or left out. Residues, ends and D or L forms follow the SMILES beside them. *: point of attachment. Cbz = O=C(OCc1ccccc1)*
What was measured:
Assay in all cases: log2 fold change, soluble protein after heating vs DMSO (PISA); higher = thermal stabilisation; K562 cells, 10 uM, 30 min; active = over 0.2 and 3.5 SD of the protein, either way, in both replicates (recomputed)
erlotinib = compound: C#Cc1cccc(Nc2ncnc3cc(OCCOC)c(OCCOC)cc23)c1 [erlotinib]
Outline: (§1)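 Soluble protein was quantified by TMTpro 16plex LC-MS/MS after channel sums were equalised. It was obtained as the supernatant after 21,000xg for 90 min from pooled aliquots of K562 cells (2×10^6 cells/mL, 10 μM compound, 30 min) heated for 3 min across 48°C-58°C and extracted in PBS with 0.5% NP-40 at 4°C. Thermal stability values are relative to control samples and come from duplicates. They are given as log2 fold changes.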

The chains behind the UniProt entries cited, without tags or fusion partners. Where a name states a change or a piece, a line headed by the entry shows the natural chain unless it says otherwise.
UniProt P48444: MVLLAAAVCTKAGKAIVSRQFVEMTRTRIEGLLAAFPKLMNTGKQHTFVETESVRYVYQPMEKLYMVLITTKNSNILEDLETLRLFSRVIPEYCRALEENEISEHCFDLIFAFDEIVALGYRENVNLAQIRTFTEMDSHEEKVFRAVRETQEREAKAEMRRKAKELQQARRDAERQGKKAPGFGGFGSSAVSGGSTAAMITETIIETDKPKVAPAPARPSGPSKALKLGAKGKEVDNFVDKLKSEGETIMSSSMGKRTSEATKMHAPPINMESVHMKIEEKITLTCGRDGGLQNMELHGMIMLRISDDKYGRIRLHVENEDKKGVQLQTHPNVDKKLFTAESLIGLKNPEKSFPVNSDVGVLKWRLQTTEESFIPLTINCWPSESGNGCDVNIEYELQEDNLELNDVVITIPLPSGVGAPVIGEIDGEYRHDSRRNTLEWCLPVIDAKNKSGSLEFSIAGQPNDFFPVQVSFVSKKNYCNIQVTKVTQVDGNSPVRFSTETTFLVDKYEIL
UniProt P84077: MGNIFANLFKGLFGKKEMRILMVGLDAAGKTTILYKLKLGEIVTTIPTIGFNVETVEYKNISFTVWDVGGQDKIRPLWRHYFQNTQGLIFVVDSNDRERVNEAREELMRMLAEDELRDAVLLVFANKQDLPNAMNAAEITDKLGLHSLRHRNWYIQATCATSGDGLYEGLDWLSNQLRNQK
UniProt Q9UJX3, whole entry, looked up: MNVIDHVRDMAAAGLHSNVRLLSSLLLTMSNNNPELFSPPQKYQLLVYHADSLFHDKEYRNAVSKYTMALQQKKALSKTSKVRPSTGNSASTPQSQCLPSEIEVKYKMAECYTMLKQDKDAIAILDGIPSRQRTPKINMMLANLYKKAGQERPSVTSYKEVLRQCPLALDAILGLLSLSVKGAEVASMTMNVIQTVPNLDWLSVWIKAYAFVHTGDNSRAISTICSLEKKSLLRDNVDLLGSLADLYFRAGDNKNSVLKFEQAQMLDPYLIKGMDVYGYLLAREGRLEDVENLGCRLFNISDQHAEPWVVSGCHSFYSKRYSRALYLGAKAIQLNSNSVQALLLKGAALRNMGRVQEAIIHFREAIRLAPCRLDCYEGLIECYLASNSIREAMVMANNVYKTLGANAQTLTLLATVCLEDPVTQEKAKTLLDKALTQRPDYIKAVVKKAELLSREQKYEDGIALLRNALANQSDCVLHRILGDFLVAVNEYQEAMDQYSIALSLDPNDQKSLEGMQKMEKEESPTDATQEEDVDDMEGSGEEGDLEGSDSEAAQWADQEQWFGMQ
UniProt P84085: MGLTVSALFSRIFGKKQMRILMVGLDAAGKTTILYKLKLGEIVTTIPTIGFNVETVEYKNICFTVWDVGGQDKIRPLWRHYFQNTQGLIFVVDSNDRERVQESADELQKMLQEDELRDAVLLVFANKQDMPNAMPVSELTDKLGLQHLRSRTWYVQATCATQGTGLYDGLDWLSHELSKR
UniProt Q68EM7: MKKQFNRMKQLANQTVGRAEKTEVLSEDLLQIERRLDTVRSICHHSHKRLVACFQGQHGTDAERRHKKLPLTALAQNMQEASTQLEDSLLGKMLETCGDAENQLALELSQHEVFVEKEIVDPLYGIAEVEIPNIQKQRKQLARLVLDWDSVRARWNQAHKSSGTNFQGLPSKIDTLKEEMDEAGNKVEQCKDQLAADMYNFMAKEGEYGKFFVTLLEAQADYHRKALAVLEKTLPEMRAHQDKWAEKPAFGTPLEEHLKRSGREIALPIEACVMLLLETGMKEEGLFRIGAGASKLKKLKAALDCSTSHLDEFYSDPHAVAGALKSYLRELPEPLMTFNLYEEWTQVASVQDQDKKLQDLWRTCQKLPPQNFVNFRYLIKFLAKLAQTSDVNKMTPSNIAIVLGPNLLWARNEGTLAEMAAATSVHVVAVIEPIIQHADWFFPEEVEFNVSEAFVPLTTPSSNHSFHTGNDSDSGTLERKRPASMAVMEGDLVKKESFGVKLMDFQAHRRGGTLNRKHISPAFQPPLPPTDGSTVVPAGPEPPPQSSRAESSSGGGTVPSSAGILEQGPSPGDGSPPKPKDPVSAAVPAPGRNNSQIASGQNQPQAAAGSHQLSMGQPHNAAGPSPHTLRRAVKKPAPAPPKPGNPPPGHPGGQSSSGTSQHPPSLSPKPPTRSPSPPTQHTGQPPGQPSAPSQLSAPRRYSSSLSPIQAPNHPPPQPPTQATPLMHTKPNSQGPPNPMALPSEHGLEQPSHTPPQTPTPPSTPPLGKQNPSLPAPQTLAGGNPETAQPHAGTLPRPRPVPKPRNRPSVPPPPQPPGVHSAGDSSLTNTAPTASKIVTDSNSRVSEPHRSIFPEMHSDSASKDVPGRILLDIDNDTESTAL
UniProt P02647, whole entry, looked up: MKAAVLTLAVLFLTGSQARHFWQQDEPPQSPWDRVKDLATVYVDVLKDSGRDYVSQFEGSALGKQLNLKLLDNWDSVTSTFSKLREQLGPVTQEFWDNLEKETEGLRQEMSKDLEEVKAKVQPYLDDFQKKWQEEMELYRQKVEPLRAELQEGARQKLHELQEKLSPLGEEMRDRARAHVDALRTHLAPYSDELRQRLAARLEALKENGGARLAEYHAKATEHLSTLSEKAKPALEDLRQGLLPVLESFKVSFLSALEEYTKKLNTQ
UniProt Q9P2R3: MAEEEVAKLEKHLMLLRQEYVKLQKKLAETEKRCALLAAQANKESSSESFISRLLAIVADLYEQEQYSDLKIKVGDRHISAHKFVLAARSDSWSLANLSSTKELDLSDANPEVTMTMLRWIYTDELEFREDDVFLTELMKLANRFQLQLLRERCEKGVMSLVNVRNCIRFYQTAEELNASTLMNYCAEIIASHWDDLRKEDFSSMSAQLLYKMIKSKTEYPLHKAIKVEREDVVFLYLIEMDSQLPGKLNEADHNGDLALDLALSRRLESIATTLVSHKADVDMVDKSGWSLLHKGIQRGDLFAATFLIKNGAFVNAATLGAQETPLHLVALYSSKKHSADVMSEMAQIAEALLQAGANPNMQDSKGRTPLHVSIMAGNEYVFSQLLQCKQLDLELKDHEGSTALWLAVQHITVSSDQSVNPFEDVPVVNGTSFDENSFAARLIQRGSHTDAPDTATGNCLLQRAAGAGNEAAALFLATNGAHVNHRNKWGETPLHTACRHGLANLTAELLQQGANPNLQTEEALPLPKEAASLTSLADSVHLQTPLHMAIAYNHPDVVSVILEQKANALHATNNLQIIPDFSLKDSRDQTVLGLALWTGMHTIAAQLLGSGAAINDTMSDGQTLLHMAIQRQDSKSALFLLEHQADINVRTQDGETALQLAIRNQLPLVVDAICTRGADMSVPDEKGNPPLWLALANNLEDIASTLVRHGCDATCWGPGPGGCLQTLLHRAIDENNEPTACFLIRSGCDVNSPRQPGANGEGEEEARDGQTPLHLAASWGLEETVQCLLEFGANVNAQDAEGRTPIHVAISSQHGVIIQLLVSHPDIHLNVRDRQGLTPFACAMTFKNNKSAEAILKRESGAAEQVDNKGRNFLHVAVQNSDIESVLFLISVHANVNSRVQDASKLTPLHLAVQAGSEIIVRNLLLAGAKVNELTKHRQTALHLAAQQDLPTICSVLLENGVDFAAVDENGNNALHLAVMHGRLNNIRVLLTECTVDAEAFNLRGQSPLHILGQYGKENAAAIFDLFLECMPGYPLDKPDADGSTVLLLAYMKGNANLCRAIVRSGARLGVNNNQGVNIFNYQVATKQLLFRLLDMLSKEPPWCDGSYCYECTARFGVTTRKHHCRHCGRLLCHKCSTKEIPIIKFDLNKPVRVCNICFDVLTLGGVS
UniProt P27695, whole entry, looked up: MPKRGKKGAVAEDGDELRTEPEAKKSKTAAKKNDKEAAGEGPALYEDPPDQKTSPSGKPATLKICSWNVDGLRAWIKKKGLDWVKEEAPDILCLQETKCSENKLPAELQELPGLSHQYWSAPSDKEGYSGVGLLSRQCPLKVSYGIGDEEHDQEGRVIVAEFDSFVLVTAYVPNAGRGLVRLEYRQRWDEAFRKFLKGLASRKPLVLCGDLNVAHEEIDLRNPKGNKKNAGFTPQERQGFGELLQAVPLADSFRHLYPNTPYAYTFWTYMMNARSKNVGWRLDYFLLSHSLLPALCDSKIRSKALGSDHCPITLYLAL
UniProt Q92888: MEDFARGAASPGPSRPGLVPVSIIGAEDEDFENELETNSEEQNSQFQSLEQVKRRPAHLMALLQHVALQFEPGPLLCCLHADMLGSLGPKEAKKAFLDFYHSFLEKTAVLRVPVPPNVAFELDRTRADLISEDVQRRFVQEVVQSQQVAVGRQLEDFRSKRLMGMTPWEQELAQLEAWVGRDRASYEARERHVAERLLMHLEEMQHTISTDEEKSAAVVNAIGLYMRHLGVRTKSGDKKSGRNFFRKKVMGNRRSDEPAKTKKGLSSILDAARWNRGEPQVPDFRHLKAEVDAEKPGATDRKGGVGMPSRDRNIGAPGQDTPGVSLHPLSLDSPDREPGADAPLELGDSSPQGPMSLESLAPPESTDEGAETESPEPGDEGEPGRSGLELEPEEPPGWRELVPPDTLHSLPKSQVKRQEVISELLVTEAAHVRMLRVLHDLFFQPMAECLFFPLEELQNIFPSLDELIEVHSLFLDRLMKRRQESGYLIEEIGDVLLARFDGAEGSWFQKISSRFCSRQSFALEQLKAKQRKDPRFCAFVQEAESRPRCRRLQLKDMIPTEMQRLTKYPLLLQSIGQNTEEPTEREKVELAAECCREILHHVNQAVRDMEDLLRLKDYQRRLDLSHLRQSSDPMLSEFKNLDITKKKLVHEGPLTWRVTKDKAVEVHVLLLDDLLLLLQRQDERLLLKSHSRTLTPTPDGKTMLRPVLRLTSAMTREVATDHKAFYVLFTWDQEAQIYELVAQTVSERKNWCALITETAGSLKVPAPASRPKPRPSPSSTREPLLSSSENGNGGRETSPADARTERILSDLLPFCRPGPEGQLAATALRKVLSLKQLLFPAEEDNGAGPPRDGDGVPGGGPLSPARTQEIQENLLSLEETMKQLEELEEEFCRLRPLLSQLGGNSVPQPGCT
UniProt Q9Y2T2: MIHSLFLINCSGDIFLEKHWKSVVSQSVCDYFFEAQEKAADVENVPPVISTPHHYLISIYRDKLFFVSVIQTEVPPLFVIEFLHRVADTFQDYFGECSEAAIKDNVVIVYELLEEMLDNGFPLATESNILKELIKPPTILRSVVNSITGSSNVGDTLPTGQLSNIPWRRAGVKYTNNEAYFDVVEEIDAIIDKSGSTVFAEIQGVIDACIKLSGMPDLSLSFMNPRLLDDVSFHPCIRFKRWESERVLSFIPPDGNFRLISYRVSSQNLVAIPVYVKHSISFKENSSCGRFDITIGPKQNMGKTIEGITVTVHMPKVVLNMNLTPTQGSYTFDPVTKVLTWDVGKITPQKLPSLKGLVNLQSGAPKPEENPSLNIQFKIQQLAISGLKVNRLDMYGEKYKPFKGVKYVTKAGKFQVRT
UniProt Q8WVL7: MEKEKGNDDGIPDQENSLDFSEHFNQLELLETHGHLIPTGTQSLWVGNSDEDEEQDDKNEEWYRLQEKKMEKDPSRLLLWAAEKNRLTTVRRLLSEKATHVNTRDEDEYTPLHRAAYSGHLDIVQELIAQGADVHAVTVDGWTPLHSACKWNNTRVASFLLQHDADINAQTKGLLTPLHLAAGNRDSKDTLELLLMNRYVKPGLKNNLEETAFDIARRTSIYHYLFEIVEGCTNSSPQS
UniProt Q6NXT1: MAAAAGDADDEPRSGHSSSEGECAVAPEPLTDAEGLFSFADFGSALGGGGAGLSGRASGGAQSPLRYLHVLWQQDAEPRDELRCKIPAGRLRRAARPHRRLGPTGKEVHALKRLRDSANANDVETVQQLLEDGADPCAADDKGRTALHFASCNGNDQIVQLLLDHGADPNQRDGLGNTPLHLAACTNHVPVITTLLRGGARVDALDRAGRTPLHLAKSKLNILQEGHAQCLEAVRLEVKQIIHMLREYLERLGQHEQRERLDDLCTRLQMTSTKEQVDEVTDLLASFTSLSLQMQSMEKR

[1] = compound: C/C(=N\NC(=O)C1=CC(=CC=C1)S(=O)(=O)N2CCOCC2)/C3=C(C=CC(=C3)Cl)O
Outline: as §1

[2] = compound: C1=CC(=C(C=C1Cl)C2=NC3=NC=CN=C3C(=N2)NC4=CC=NC=C4)F
Outline: as §1

[3] = compound: C1=CC(=CC=C1C2=NC3=C(N2)C=C(C=C3)C(=O)N)OC4=CC=C(C=C4)Cl
Outline: as §1

[4] = compound: C1=CC2=C(C=CC(=C2)/C=C\3/C(=O)NC(=NCC4=CC=CS4)S3)N=C1
Outline: as §1

[5] = compound: C1=CC2=NC=CN=C2C=C1/C=C/3\C(=O)NC(=O)S3
Outline: as §1

[6] = compound: C1=CC=C(C=C1)C2=NC(=C(N2)C3=CC=NC=C3)C4=CC(=C(C=C4)Cl)O
Outline: as §1

[7] = compound: C1=CC=C2C(=C1)C3=NNC4=CC=CC(=C43)C2=O
Outline: as §1

[8] = compound: C1CCN(C1)C(=O)NC2=CC=CC(=C2)NC3=NC=C(C(=N3)NCCC4=CN=CN4)Br
Outline: as §1

[9] = compound: C1CN(CCC1(CC2=CC=C(C=C2)Cl)N)C3=NC=NC4=C3C=CN4
Outline: as §1

IRAK-1-4 Inhibitor I = compound: C1COCCN1CCN2C3=CC=CC=C3N=C2NC(=O)C4=CC(=CC=C4)[N+](=O)[O-] [IRAK-1-4 Inhibitor I]
Outline: as §1

ibrutinib = compound: C=CC(=O)N1CCC[C@@H](n2nc(-c3ccc(Oc4ccccc4)cc3)c3c(N)ncnc32)C1 [ibrutinib]
Outline: as §1

[10] = compound: CC(=O)c1cnc2ccc(-c3cc(Cl)c(O)c(Cl)c3)nc2c1N[C@H]1CC[C@H](CN(C)C)CC1
Outline: as §1

ralimetinib = compound: CC(C)(C)Cn1c(N)nc2ccc(-c3[nH]c(C(C)(C)C)nc3-c3ccc(F)cc3)nc21 [ralimetinib]
Outline: as §1

[11] = compound: CC(C)(O)CC(=O)NCCn1ccc2ncnc(Nc3ccc(Oc4cccc(C(F)(F)F)c4)c(Cl)c3)c21
Outline: as §1

[12] = compound: CC(C)C1=C2N=C(C=C(N2N=C1)NCC3=CC=CC=C3)NCCCCCCN
Outline: as §1

[13] = compound: CC(C)C[C@@H](C=O)NC(=O)[C@H](CC(C)C)NC(=O)[C@H](CC(C)C)NC(=O)OCc1ccccc1
Outline: as §1

pinometostat = compound: CC(C)N(C[C@H]1O[C@@H](n2cnc3c(N)ncnc32)[C@H](O)[C@@H]1O)[C@H]1C[C@@H](CCc2nc3cc(C(C)(C)C)ccc3[nH]2)C1 [pinometostat]
Outline: as §1

[14] = compound: CC1=C(C(CC(=O)N1)C2=CC=C(C=C2)C(F)(F)F)C(=O)NC3=C(C=C4C(=C3)C=NN4)F
Outline: as §1

[15] = compound: CC1=C(C2=C(C=C1)C(=O)C3=CC=CC=C3N2CCCN)C
Outline: as §1

Measured: log2 fold change

ARCN1 (UniProt P48444)
inactive: erlotinib -0.03 | [1] 0.011 | [2] 0.094 | [3] 0.005 | [4] -0.004 | [5] 0.021 | [6] 0.01 | [7] -0.022 | [8] -0.04 | [9] 0.028 | IRAK-1-4 Inhibitor I -0.002 | ibrutinib -0.03 | [10] 0.008 | ralimetinib -0.016 | [11] 0.03 | [12] 0.048 | [13] -0.008 | pinometostat -0.009 | [14] 0.01 | [15] -0.016

ARF1 (UniProt P84077)
inactive: erlotinib 0.018 | [1] 0.011 | [2] 0.186 | [3] 0.088 | [4] -0.007 | [5] -0.031 | [6] -0.003 | [7] -0.048 | [8] 0.032 | [9] -0.106 | IRAK-1-4 Inhibitor I -0.014 | ibrutinib 0.059 | [10] -0.032 | ralimetinib -0.063 | [11] 0.125 | [12] 0.065 | [13] 0.042 | pinometostat -0.06 | [14] -0.056 | [15] 0.151

ANAPC7 (UniProt Q9UJX3)
inactive: erlotinib -0.011 | [1] 0.039 | [2] -0.032 | [3] 0.065 | [4] -0.022 | [5] 0.014 | [6] 0.034 | [7] 0.012 | [8] -0.013 | [9] -0.031 | IRAK-1-4 Inhibitor I -0.047 | ibrutinib 0 | [10] 0.004 | ralimetinib 0.093 | [11] -0.014 | [12] -0.035 | [13] 0.033 | pinometostat 0.038 | [14] 0.025 | [15] -0.053

ARF5 (UniProt P84085)
inactive: erlotinib 0.024 | [1] 0.018 | [2] -0.011 | [3] -0.016 | [4] -0.019 | [5] 0.042 | [6] -0.028 | [7] 0.016 | [8] 0.025 | [9] 0.042 | IRAK-1-4 Inhibitor I -0.007 | ibrutinib 0.011 | [10] 0.005 | ralimetinib 0.01 | [11] -0.019 | [12] 0.061 | [13] -0.027 | pinometostat -0.037 | [14] -0.028 | [15] 0.01

ARHGAP17 (UniProt Q68EM7)
inactive: erlotinib 0.034 | [1] -0.07 | [2] -0.076 | [3] -0.056 | [4] 0.075 | [5] 0.064 | [6] -0.011 | [7] -0.019 | [8] 0.027 | [9] -0.157 | IRAK-1-4 Inhibitor I -0.113 | ibrutinib -0.05 | [10] 0.075 | ralimetinib 0.081 | [11] -0.04 | [12] -0.294 | [13] 0.102 | pinometostat 0.157 | [14] -0.027 | [15] 0.064

APOA1 (UniProt P02647)
inactive: erlotinib 0.001 | [1] -0.164 | [2] -0.059 | [3] -0.051 | [4] 0.132 | [5] -0.143 | [6] -0.188 | [7] -0.06 | [8] -0.065 | [9] 0.069 | IRAK-1-4 Inhibitor I 0.018 | ibrutinib 0.221 | [10] 0.007 | ralimetinib -0.139 | [11] 0.25 | [12] 0.12 | [13] -0.006 | pinometostat -0.035 | [14] -0.123 | [15] -0.083

ANKFY1 isoform 4 (UniProt Q9P2R3)
inactive: erlotinib 0.055 | [1] 0.077 | [2] -0.216 | [3] -0.058 | [4] -0.081 | [5] 0.005 | [6] -0.044 | [7] -0.062 | [8] -0.016 | [9] -0.172 | IRAK-1-4 Inhibitor I -0.117 | ibrutinib 0.043 | [10] 0.005 | ralimetinib -0.044 | [11] -0.002 | [12] -0.093 | [13] 0.18 | pinometostat -0.13 | [14] 0.073 | [15] -0.208

ARID1A (UniProt O14497)
inactive: erlotinib 0.023 | [1] -0.027 | [2] -0.053 | [3] 0.025 | [4] 0.197 | [5] 0.035 | [6] -0.188 | [7] -0.054 | [8] -0.033 | [9] -0.014 | IRAK-1-4 Inhibitor I -0.109 | ibrutinib -0.165 | [10] -0.059 | ralimetinib 0.057 | [11] 0.015 | [12] -0.131 | [13] -0.002 | pinometostat -0.035 | [14] -0.025 | [15] 0.063

APEX1 (UniProt P27695)
inactive: erlotinib -0.014 | [1] 0.027 | [2] 0.041 | [3] 0.004 | [4] 0.03 | [5] 0.007 | [6] 0.045 | [7] 0 | [8] 0.088 | [9] -0.071 | IRAK-1-4 Inhibitor I 0.021 | ibrutinib -0.029 | [10] -0.031 | ralimetinib 0.009 | [11] -0.085 | [12] -0.115 | [13] -0.074 | pinometostat -0.034 | [14] -0.027 | [15] 0.001

ARHGEF1 isoform 3 (UniProt Q92888)
inactive: erlotinib 0.022 | [1] -0.045 | [2] -0.059 | [3] 0.008 | [4] -0.03 | [5] -0.015 | [6] -0.016 | [7] -0.037 | [8] -0.058 | [9] -0.155 | IRAK-1-4 Inhibitor I -0.093 | ibrutinib -0.007 | [10] -0.007 | ralimetinib 0.149 | [11] 0.05 | [12] -0.275 | [13] 0.098 | pinometostat 0.222 | [14] -0.019 | [15] -0.044

AP3M1 (UniProt Q9Y2T2)
inactive: erlotinib 0.016 | [1] 0.053 | [2] 0.04 | [3] -0.002 | [4] 0.047 | [5] 0.012 | [6] 0.002 | [7] -0.022 | [8] -0.045 | [9] -0.035 | IRAK-1-4 Inhibitor I -0.015 | ibrutinib -0.007 | [10] -0.021 | ralimetinib 0 | [11] -0.15 | [12] -0.02 | [13] 0.048 | pinometostat 0.014 | [14] 0.015 | [15] -0.024

ARHGEF7 isoform 5 (UniProt Q14155)
inactive: erlotinib 0.17 | [1] 0.054 | [2] 0.015 | [3] -0.017 | [4] 0.047 | [5] -0.019 | [6] 0.02 | [7] -0.055 | [8] -0.057 | [9] 0.023 | IRAK-1-4 Inhibitor I -0.135 | ibrutinib 0.006 | [10] -0.21 | ralimetinib 0.12 | [11] -0.165 | [12] -0.18 | [13] 0.04 | pinometostat 0.142 | [14] -0.017 | [15] 0.026

2 consecutive entries from above:
APEX1 (UniProt P27695)
inactive: erlotinib -0.014 | [1] 0.027 | [2] 0.041 | [3] 0.004 | [4] 0.03 | [5] 0.007 | [6] 0.045 | [7] 0 | [8] 0.088 | [9] -0.071 | IRAK-1-4 Inhibitor I 0.021 | ibrutinib -0.029 | [10] -0.031 | ralimetinib 0.009 | [11] -0.085 | [12] -0.115 | [13] -0.074 | pinometostat -0.034 | [14] -0.027 | [15] 0.001

ARHGEF1 isoform 3 (UniProt Q92888)
inactive: erlotinib 0.022 | [1] -0.045 | [2] -0.059 | [3] 0.008 | [4] -0.03 | [5] -0.015 | [6] -0.016 | [7] -0.037 | [8] -0.058 | [9] -0.155 | IRAK-1-4 Inhibitor I -0.093 | ibrutinib -0.007 | [10] -0.007 | ralimetinib 0.149 | [11] 0.05 | [12] -0.275 | [13] 0.098 | pinometostat 0.222 | [14] -0.019 | [15] -0.044

The results go on:

AP1G1 isoform 2 (UniProt O43747)
inactive: erlotinib 0.012 | [1] 0.035 | [2] 0.026 | [3] -0.02 | [4] 0.011 | [5] 0.037 | [6] 0.073 | [7] -0.029 | [8] -0.007 | [9] -0.049 | IRAK-1-4 Inhibitor I -0.023 | ibrutinib -0.028 | [10] 0.043 | ralimetinib 0.115 | [11] -0.089 | [12] -0.072 | [13] -0.037 | pinometostat 0.057 | [14] 0.03 | [15] 0.052

ANKRD49 (UniProt Q8WVL7)
inactive: erlotinib 0.01 | [1] -0.018 | [2] 0.021 | [3] -0.004 | [4] -0.112 | [5] -0.036 | [6] 0.046 | [7] 0.056 | [8] -0.005 | [9] 0.051 | IRAK-1-4 Inhibitor I -0.01 | ibrutinib -0.095 | [10] -0.089 | ralimetinib -0.037 | [11] -0.081 | [12] 0.033 | [13] -0.015 | pinometostat -0.045 | [14] 0.002 | [15] 0.035

ANKRD54 (UniProt Q6NXT1)
inactive: erlotinib -0.021 | [1] 0.015 | [2] -0.029 | [3] 0.022 | [4] -0.024 | [5] -0.001 | [6] -0.03 | [7] -0.031 | [8] -0.003 | [9] 0.041 | IRAK-1-4 Inhibitor I 0.004 | ibrutinib 0.087 | [10] -0.106 | ralimetinib 0.027 | [11] -0.063 | [12] -0.005 | [13] -0.041 | pinometostat 0.048 | [14] -0.042 | [15] -0.085

ANO6 isoform 2 (UniProt Q4KMQ2)
inactive: erlotinib 0.024 | [1] -0.012 | [2] 0.017 | [3] 0.009 | [4] 0.006 | [5] 0.01 | [6] 0.052 | [7] -0.01 | [8] -0.008 | [9] 0.092 | IRAK-1-4 Inhibitor I 0.079 | ibrutinib 0.045 | [10] -0.011 | ralimetinib -0.025 | [11] -0.089 | [12] -0.026 | [13] 0.004 | pinometostat 0.026 | [14] -0.038 | [15] 0.08

Reference: the supplement of paper PMC10849652
